This is an account of results in article PMC4655416.

No constants are given. Whether binding was seen depends on the method and setting.

This assay deals with protein phosphatase 5 from C. elegans (PPH-5) (C. elegans) (UniProt Q9NES8). The experiment in a line: SAXS; in-house SAXS of CeHsp90, PPH-5 and their mixtures at 2:1 and 2:2 (CeHsp90 monomer:PPH-5); 0.8 to 6.3 mg/ml; mass from the Porod volume; both purified.

B1: protein phosphatase 5 from C. elegans (PPH-5) (enzyme, UniProt Q9NES8 1-496)
chain: MAATITDDIVATVLESIEEKSYEDEKEKAGMIKDEANQFFKDQVYDVAADLYSVAIEIHPTAVLYGNRAQAYLKKELYGSALEDADNAIAIDPSYVKGFYRRATANMALGRFKKALTDYQAVVKVCPNDKDARAKFDECSKIVRRQKFEAAISTDHDKKTVAETLDINAMAIEDSYDGPRLEDKITKEFVLQLIKTFKNQQKLHKKYAFKMLLEFYNYVKSLPTMVEITVPTGKKFTICGDVHGQFYDLCNIFEINGYPSETNPYLFNGDFVDRGSFSVETIFTMIGFKLLYPNHFFMSRGNHESDVMNKMYGFEGEVKAKYTQQMCDMFTETFCWLPLCHLINEKIFVCHGGLFKEDGVTLEDIRKTDRNRQPPDEGIMCDLLWSDPQPINGRSPSKRGVGCQFGPDVTSKWCETNGIEYVVRSHEVKPEGYEMHHNGQCFTVFSAPNYCDQMNNKGAFITITGDNLTPRFTPFDAVPHPKLPPMAYANSLFGFN
Turning to B1, the binding entry was “no binding”.
